{"sequences": {"note": "Sequences of proteins named here, by UniProt entry; tags and fusion partners are left off. Residues count along the entry.", "UniProt P43220, residues 24-463": "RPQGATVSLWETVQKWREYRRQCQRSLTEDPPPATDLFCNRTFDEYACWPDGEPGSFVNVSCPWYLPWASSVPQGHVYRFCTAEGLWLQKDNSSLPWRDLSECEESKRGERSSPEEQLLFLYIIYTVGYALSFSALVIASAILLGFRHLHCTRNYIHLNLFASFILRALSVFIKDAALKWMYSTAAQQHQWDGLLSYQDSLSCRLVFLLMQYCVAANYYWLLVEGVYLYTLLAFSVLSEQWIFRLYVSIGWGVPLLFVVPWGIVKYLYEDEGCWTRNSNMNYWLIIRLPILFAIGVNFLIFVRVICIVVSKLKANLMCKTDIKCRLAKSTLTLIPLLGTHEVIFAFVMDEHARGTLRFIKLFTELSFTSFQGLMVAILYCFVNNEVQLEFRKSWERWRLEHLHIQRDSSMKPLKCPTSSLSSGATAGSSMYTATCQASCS", "UniProt P32121": "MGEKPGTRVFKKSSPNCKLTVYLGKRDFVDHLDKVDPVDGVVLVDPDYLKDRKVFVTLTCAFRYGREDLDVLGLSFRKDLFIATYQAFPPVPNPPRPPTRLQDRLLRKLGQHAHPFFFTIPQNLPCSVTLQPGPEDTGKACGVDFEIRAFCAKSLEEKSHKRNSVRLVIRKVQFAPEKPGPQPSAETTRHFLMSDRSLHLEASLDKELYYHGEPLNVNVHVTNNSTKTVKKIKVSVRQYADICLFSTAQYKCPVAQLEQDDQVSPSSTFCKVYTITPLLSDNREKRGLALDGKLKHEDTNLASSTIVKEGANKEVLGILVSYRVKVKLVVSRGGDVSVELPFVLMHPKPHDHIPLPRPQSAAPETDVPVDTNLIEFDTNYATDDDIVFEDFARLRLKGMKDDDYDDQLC"}, "source": "paper PMC12398856", "about": "“A GLP-1 analogue optimized for cAMP-biased signaling improves weight loss in obese mice” (Molecular Metabolism, 2025)", "key": {"[1]": {"molecular_target": "human GLP-1 receptor (hGLP-1R) (human) (UniProt P43220)", "experiment": "FRET or BRET; live HEK293T cells transiently transfected with hGLP-1R constructs and sensors; ligand-induced recruitment after native GLP-1(7-36), semaglutide or NNC5840; BRET read every 60 s, iAUC for dose-response; PBS with coelenterazine-h or NanoGlo"}, "[2]": {"molecular_target": "human GLP-1 receptor (hGLP-1R) (human) (UniProt P43220)", "experiment": "FRET or BRET; as a1, with NNC5840 as the ligand that stimulates the receptor"}}, "note": "These are yes or no findings as the source states them, for the method shown. In cells and extracts the contact can be indirect. Some entries that bind do so weakly or less than the wild type.", "data": [{"substance": "β-arrestin 2 (from UniProt P32121 1-409)", "values": [{"measurement": "binding", "setting": "[1]", "value": "binds"}, {"measurement": "binding", "setting": "[2]", "value": "binds weakly"}]}]}
